From article PMC10613257
These are yes or no findings as the source states them, for the method shown.

Amino acid sequences for entries named in this document (tags omitted). Residues count along the entry.
UniProt Q9BXP8, residues 235-1791: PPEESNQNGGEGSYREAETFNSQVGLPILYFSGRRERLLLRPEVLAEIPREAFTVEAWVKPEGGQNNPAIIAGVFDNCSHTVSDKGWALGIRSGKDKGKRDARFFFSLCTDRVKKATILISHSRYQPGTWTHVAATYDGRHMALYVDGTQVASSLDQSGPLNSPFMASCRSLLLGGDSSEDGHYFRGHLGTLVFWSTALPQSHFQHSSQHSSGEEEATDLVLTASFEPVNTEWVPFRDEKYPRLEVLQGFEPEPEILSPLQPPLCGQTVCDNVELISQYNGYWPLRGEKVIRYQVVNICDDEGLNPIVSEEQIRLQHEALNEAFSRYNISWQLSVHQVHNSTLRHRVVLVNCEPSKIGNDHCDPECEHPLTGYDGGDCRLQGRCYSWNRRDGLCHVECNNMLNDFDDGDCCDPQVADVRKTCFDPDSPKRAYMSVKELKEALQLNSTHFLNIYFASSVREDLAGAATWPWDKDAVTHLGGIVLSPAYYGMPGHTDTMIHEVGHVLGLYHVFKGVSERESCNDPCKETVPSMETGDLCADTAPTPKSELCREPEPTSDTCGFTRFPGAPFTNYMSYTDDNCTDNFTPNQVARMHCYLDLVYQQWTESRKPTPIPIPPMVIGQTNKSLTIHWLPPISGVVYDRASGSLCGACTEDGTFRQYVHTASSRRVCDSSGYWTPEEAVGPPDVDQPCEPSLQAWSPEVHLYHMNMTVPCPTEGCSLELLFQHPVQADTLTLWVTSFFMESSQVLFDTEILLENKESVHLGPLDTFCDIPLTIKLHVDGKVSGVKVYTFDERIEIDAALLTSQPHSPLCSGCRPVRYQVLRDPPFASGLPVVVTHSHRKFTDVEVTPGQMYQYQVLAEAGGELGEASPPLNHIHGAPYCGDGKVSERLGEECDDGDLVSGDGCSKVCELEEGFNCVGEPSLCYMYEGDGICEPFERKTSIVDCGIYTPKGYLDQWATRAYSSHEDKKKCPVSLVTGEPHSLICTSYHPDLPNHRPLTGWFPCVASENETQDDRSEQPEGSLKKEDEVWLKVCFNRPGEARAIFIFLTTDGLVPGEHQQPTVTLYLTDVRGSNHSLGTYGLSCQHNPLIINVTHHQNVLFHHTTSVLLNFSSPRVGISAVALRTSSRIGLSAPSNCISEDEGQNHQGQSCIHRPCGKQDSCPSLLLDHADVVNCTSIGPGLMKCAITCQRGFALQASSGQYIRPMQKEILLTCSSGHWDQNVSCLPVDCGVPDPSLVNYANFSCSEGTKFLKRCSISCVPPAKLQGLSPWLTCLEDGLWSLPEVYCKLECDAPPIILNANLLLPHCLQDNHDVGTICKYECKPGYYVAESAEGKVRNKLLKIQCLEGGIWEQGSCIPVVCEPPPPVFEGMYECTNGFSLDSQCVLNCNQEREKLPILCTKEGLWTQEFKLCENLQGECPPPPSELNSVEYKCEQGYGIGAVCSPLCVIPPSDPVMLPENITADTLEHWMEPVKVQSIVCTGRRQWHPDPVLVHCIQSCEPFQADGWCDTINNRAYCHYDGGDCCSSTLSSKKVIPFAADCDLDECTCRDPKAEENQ

How the values were obtained:
[1] = target: Pregnancy-Associated Plasma Protein A2 (PAPP-A2), wild type (human) (UniProt Q9BXP8); assay: reducing and non-reducing SDS-PAGE; 4-12% Bis-Tris gels, non-reduced samples not boiled, Coomassie stain; both purified
[2] = target: Pregnancy-Associated Plasma Protein A2 (PAPP-A2), wild type (human) (UniProt Q9BXP8); assay: SEC; Superose 6 Increase 10/300 in 1X PBS; both purified
[3] = target: Pregnancy-Associated Plasma Protein A2 (PAPP-A2), wild type (human) (UniProt Q9BXP8); assay: native gel or EMSA; blue native PAGE, 3-8% Tris-acetate gels, Tris-glycine native running buffer; both purified

binding [1]: no binding
binding [2]: no binding
binding [3]: no binding
Substance: Pregnancy-Associated Plasma Protein A2 (PAPP-A2), wild type (from UniProt Q9BXP8 235-1791) (enzyme)
